# From PubChem BioAssay AID588497 (NMMLSC, 2011)
# The campaign covered roughly 360,000 compounds. About 780 (0.22%) were called active. The shares of active, inactive and inconclusive entries below differ from those in the screen. No stated cut-off is given here; in the data, active means inhibition above about 35% (passing the limit was not always enough); inconclusive means no clear call, values can overlap the other calls.
# Test system: Botulinum neurotoxin type F light chain protease (Clostridium botulinum)
# Assay: BoNT/F light chain protease inhibitors, primary screen, biochemical, flow cytometry, MLPCN library (AID 588497); further: plate controls were buffer without enzyme for full effect and enzyme alone for no effect
# Conditions: Multiplex microsphere protease cleavage assay, at 10 µM, hits give high values
row,Compound,inhibition
1,COc1ccc(/C=C/C(=O)N2CC(C)OC(C)C2)cc1OC (stereo unspecified),inconclusive: 16.5%
2,COc1ccc(NC(=O)c2ccccc2C)cc1,inconclusive: -2%
3,CCOc1ccccc1NC(=O)c1ccc2ccccc2c1,inconclusive: -16.7%
4,CC(C)=CC1C(C(=O)NCCOc2ccccc2)C1(C)C (stereo unspecified),active: 35.4%
5,CCCCn1c(N)c(N(CCOC)C(=O)CC2CCCCC2)c(=O)[nH]c1=O,inactive: 6.3%
6,CS(=O)(=O)c1ccccc1C(=O)N1CCN(S(=O)(=O)c2ccc(C3CCCCC3)cc2)CC1,inconclusive: -5.2%
7,COc1cc(NC(=O)C2=C(C)OCCS2)c(Cl)cc1C(=O)NCCN(C)C,inactive: -0.8%
8,COc1cccc(CN2CC(C(=O)N(C)C3CCOCC3)CCC2=O)c1 (stereo unspecified),inactive: -11.6%
9,O=c1cc(Nc2ccc3c(c2)OCCO3)[nH]c(=O)n1C1CCCCC1,inactive: 1.5%
10,CCn1ncc(C(=O)Nc2ccc([N+](=O)[O-])cc2OC)c1C,inconclusive: -5.7%
11,O=C(CCCNS(=O)(=O)c1cccc2nsnc12)N1CCCCC1,inactive: -12.7%
12,O=C(NCc1ccco1)c1ccc2c(c1)CCO2,inconclusive: -29.9%
13,C=CC(=O)NC1CC2CCC1(C)C2(C)C (stereo unspecified),inconclusive: -66.1%
14,Cc1csc(NC(=O)C2CCCCC2)n1,inconclusive: 35.9%
15,CN(C)c1ccc(/C=C/C(=O)c2cccc(Br)c2)cc1,active: 83.7%
16,C=CCn1c(O)c(C(CC)=NCCN2CCN(C(=S)NC)CC2)c(=O)[nH]c1=O,inconclusive: 32%
17,Cc1cc(C)c(OCCCCCn2ccnc2)c(C)c1,inconclusive: -23.8%
18,COC(=O)c1cc2c(ccc3ccccc32)oc1=O,inconclusive: 48.5%
19,CN(C)c1ccc(/C=N/NC(=O)c2ccccc2)cc1,inactive: -0.9%
20,O=C(Nc1cc(Cl)ccc1Cl)C1CCCO1 (stereo unspecified),inconclusive: 19%
21,O=C(COC(=O)CCCN1C(=O)c2ccccc2C1=O)Nc1ncc(Cl)cc1Cl,inconclusive: -43.4%
22,CCOC(=O)C(C)N1CC(=O)N(c2ccccc2)C1=O (stereo unspecified),inconclusive: 13.3%
23,Cc1nn(C)cc1C1C(C#N)=C(N)N(c2ccc(F)c([N+](=O)[O-])c2)C2=C1C(=O)CCC2 (stereo unspecified),inactive: -2.7%
24,O=C(O)CN1C(=O)/C(=C\c2cccc(OCc3ccc(Cl)cc3Cl)c2)SC1=S,inconclusive: -1.8%
25,COc1cccc(CNn2c(-c3cccc(C)c3)nc3ccccc3c2=O)c1,inactive: -0.3%
26,COc1ccc(-c2oc3ncnc(NCCCO)c3c2-c2ccc(OC)cc2)cc1,inconclusive: -11.3%
